Laboratory results: PubChem BioAssay AID504808 (Drosophila RNAi Screening Center, 2011)
Purpose: 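Chromatin factors that keep E2F targets switched off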 (primary screen). System: Drosophila S2 cells. Reagent: long dsRNA against Drosophila genes. Measurement: 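Firefly luciferase driven by E2F sites, normalised to Renilla luciferase on the same minimal promoter, measured by plate reader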. Reading the numbers: E2F firefly: higher = more E2F reporter activity; Renilla normaliser: higher = more normaliser reporter signal. Active means: 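a knock-down counted as active when the firefly/Renilla E2F signal rose above 50%, a threshold chosen arbitrarily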.
The screen tested about 21,000 reagents; below is an unselected part of those with a known target gene and a result. Over the whole deposit, 18 (0.084%) were called active. 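Raw counts without plate normalisation, one of two replicates; the ratio scores behind the calls were not deposited.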 A number with no mark means an inactive call. Names joined by + are all predicted targets of the reagent. No sequences are given here. The record does not give: the amount of reagent, the time to read-out.

gene	DRSC id	E2F firefly, rep 1	Renilla normaliser, rep 1
CG32299 + CG32298	DRSC07980	1.36e5	4193
NaPi-III (Na[+]-dependent inorganic phosphate cotransporter type III)	DRSC10893	81896	3508
NaPi-III (Na[+]-dependent inorganic phosphate cotransporter type III)	DRSC10894	79832	4624
pyd (polychaetoid)	DRSC12712	78044	4038
pyd (polychaetoid)	DRSC14387	74062	3960
pyd (polychaetoid)	DRSC14445	1.45e5	6331
pyd (polychaetoid)	DRSC14509	1.16e5	5624
pyd (polychaetoid)	DRSC16547	63525	3763
pyd (polychaetoid)	DRSC16548	1.23e5	6226
pyd (polychaetoid)	DRSC17041	1.35e5	6909
g (garnet)	DRSC20335	74063	4451
rha	DRSC17044	1792	952
ase (asense)	DRSC18739	55578	3696
Cp38 (Chorion protein 38)	DRSC18453	37531	3924
CR18166 (pseudo)	DRSC17260	73226	2621
CR18166 (pseudo)	DRSC18147	69341	5942
CG14085	DRSC10089	1.25e5	5773
CG14511	DRSC14863	1.26e5	6238
CG2321	DRSC15439	1805	1060
CG11076	DRSC17197	1.18e5	6556
CG33330 (retired record)	DRSC13053	95956	3410
CG33330 (retired record)	DRSC15495	73589	3651
sphinx1	DRSC10993	1.03e5	4290
gb (genderblind)	DRSC15961	1699	1012
CG14883	DRSC15007	1.02e5	4807
CG18539	DRSC06766	1.45e5	4511
meso18E	DRSC20351	1.23e5	6646
CG11034	DRSC02121	1.77e5	5284
CG11034	DRSC02122	1.47e5	4705
CG3557	DRSC00614	86514	3579
CG13121 (retired record)	DRSC02217	1.43e5	5738
Hmr (Hybrid male rescue)	DRSC17740	1.18e5	5815
CCDC53 (Coiled-coil domain containing 53)	DRSC03056	1.51e5	5644
pont (pontin)	DRSC17029	1.77e5	7124
CG13226	DRSC06346	95788	4250
aurA (aurora A)	DRSC16905	1.40e5	5266
CG34354	DRSC13863	85646	2535
CG34354	DRSC14515	67881	3556
CG34354	DRSC14558	53355	3674
CG34354	DRSC15645	1.27e5	5506
Or22a (Odorant receptor 22a)	DRSC00764	1.61e5	6373
CG14860	DRSC14983	1.18e5	6709
TTLL4B (Tubulin tyrosine ligase-like 4B)	DRSC00636	78579	3956
dnd (dead end)	DRSC16064	1.53e5	7598
CG34243 (retired record)	DRSC09291	1.30e5	3925
CG34243 (retired record)	DRSC09292	1.41e5	3575
PolZ2 (DNA polymerase zeta subunit 2)	DRSC12325	1.34e5	6771
Sgt1 (suppressor-of-G2-allele-of-skp1)	DRSC16519	1.22e5	5544
CG4631	DRSC02766	94278	4330
CG30274	DRSC04171	1.06e5	4517
CG18281	DRSC11742	81390	3939
CG9368	DRSC11067	79981	3528
Ubqn (Ubiquilin)	DRSC19581	1.64e5	6101
CG12480	DRSC19460	1.49e5	5894
Nemp (Nuclear envelope integral membrane protein)	DRSC20206	1.64e5	5974
slow (slowdown)	DRSC08589	68052	3579
slow (slowdown)	DRSC08590	83337	3104
CoRest	DRSC19881	1.43e5	5633
Ance (Angiotensin converting enzyme)	DRSC01865	75519	3548
mRpL22 (mitochondrial ribosomal protein L22)	DRSC19915	2.32e5	7012
Or85c (Odorant receptor 85c)	DRSC16766	1.32e5	6322
Dlip3 (Dorsal interacting protein 3)	DRSC07401	1.48e5	4772
sano (serrano)	DRSC06165	77910	3557
TTLL4A (Tubulin tyrosine ligase-like 4A)	DRSC02528	92972	3367
Crtc (CREB-regulated transcription coactivator)	DRSC10578	1.06e5	5193
CG42372 + CG30100	DRSC05602	1.58e5	5555
CG14718	DRSC14941	83393	4151
mRpS6 (mitochondrial ribosomal protein S6)	DRSC08470	91122	3108
bam (bag of marbles)	DRSC16907	1.02e5	6522
CG13926	DRSC08395	86395	4350
CG31473	DRSC15443	1.37e5	7144
msd1 (mitotic spindle density 1)	DRSC08383	1.10e5	4275
CG6225	DRSC15996	1.48e5	6270
Nufip	DRSC10397	81428	3694
CG18131	DRSC00517	1.37e5	4776
CG11566 (retired record) + stg1	DRSC20473	91792	5185
CG11566 (retired record) + stg1	DRSC20481	1.29e5	5956
CG11566 (retired record) + stg1	DRSC20482	1.45e5	6836
CG11566 (retired record) + stg1	DRSC20483	1.37e5	6388
CG3739	DRSC15510	1.58e5	7340
CG10151	DRSC05974	151	29
cpa (capping protein alpha)	DRSC04080	80463	3413
Ak3 (Adenylate kinase 3)	DRSC16075	1.33e5	5783
CG14903	DRSC15024	1.10e5	5573

Reformatted: results already given
gene,DRSC id,"E2F firefly, rep 1","Renilla normaliser, rep 1"
ase (asense),DRSC18739,55578,3696
Cp38 (Chorion protein 38),DRSC18453,37531,3924
CR18166 (pseudo),DRSC17260,73226,2621
CR18166 (pseudo),DRSC18147,69341,5942
CG14085,DRSC10089,1.25e5,5773
CG14511,DRSC14863,1.26e5,6238
CG2321,DRSC15439,1805,1060
CG11076,DRSC17197,1.18e5,6556
CG33330 (retired record),DRSC13053,95956,3410
CG33330 (retired record),DRSC15495,73589,3651
